Test results: the supplement of paper PMC4604168 (melanoma cell lines)
This is one part of the list. Repeats are few or missing, and single values can be far off.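 Cells were imaged in 1,536-well plates, and nuclei stained with an antibody against cleaved PARP were counted against all DNA-stained nuclei to give the apoptosis fraction. Screening doses were chosen to leave most cells alive, and resting and induced cleaved-PARP levels differ strongly between cell lines.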

Assays:
Assay in all cases: cleaved PARP positive nuclei fraction relative to DMSO control; melanoma cells; higher = more apoptosis
Details in all cases: library dose: low library concentration; 72 h
MZ2-MEL = tested on: MZ2-MEL
MeWo = tested on: MeWo
RPMI7951 = tested on: RPMI7951
RVH-421 = tested on: RVH-421
SkMel28 = tested on: SkMel28
SkMel2 = tested on: SkMel2
SkMel30 = tested on: SkMel30
SkMel5 = tested on: SkMel5
UACC257 = tested on: UACC257
UACC62 = tested on: UACC62
WM115 = tested on: WM115
WM1716 = tested on: WM1716
WM1745 = tested on: WM1745
WM3526 = tested on: WM3526
WM3619 = tested on: WM3619
WM451Lu = tested on: WM451Lu

| SMILES | cleaved PARP positive nuclei fraction (MZ2-MEL) | cleaved PARP positive nuclei fraction (MeWo) | cleaved PARP positive nuclei fraction (RPMI7951) | cleaved PARP positive nuclei fraction (RVH-421) | cleaved PARP positive nuclei fraction (SkMel28) | cleaved PARP positive nuclei fraction (SkMel2) | cleaved PARP positive nuclei fraction (SkMel30) | cleaved PARP positive nuclei fraction (SkMel5) | cleaved PARP positive nuclei fraction (UACC257) | cleaved PARP positive nuclei fraction (UACC62) | cleaved PARP positive nuclei fraction (WM115) | cleaved PARP positive nuclei fraction (WM1716) | cleaved PARP positive nuclei fraction (WM1745) | cleaved PARP positive nuclei fraction (WM3526) | cleaved PARP positive nuclei fraction (WM3619) | cleaved PARP positive nuclei fraction (WM451Lu) |
| --- | --- | --- | --- | --- | --- | --- | --- | --- | --- | --- | --- | --- | --- | --- | --- | --- |
| Nc1nc(F)nc2c1ncn2[C@@H]1O[C@H](CO)[C@@H](O)[C@@H]1O [fludarabine] + COc1cc(N2CCC(N3CCN(C)CC3)CC2)ccc1Nc1ncc(Cl)c(Nc2ccccc2S(=O)(=O)C(C)C)n1 [NVP-TAE684] (first compound 0.2 µM, partner dose 0.08 µM) | 73.6% | 874% | 76.9% | 52.4% | 346% | 512% | 458% | 154% | 55.6% | 41.4% | 109% | 86.1% | 294% | 815% | 108% | 320% |
| Nc1ncn([C@H]2C[C@H](O)[C@@H](CO)O2)c(=O)n1 [decitabine] + C[C@@H]1CCN(C(=O)CC#N)C[C@@H]1N(C)c1ncnc2[nH]ccc12 [CP690550] (first compound 0.1 µM, partner dose 1 µM) | 89.5% | 29.6% | 233% | 105% | 40.5% | 154% | 60.2% | 73.8% | 142% | 192% | 147% | 120% | 107% | 52.3% | 101% | 25.4% |
| Nc1ccn([C@@H]2O[C@H](CO)[C@@H](O)C2(F)F)c(=O)n1 [gemcitabine] + COc1cc(N2CCC(N3CCN(C)CC3)CC2)ccc1Nc1ncc(Cl)c(Nc2ccccc2S(=O)(=O)C(C)C)n1 [NVP-TAE684] (first compound 0.0004 µM, partner dose 0.08 µM) | 118% | 149% | 43.5% | 85.2% | 45.3% | 40.3% | 103% | 154% | 129% | 165% | 176% | 202% | 147% | 79.7% | 136% | 77.7% |
| CS(=O)(=O)CCNCc1ccc(-c2ccc3ncnc(Nc4ccc(OCc5cccc(F)c5)c(Cl)c4)c3c2)o1 [lapatinib] + O=C(CCCCCCC(=O)Nc1ccccc1)NO [vorinostat] (first compound 0.8 µM, partner dose 0.08 µM) | 108% | 84.5% | 44.7% | 118% | 44.4% | 164% | 84.5% | 74.8% | 230% | 51.8% | 58.3% | 112% | 93.8% | 65.8% | 112% | 61.2% |
| Cn1c(=O)n(-c2ccc(C(C)(C)C#N)cc2)c2c3cc(-c4cnc5ccccc5c4)ccc3ncc21 + CCCCCCCCCCCC1=C(O)C(=O)C=C(O)C1=O [Embelin] (first compound 0.004 µM, partner dose 1.2 µM) | 129% | 63.4% | 73.3% | 85.9% | 181% | 114% | 123% | 79.2% | 366% | 176% | 203% | 54.3% | 89.7% | 177% | 107% | 147% |
| CCCS(=O)(=O)Nc1ccc(F)c(C(=O)c2c[nH]c3ncc(Cl)cc23)c1F + CCc1ccc(CCOc2ccc(CC3SC(=O)NC3=O)cc2)nc1 [pioglitazone] (first compound 0.08 µM, partner dose 2 µM) | 70.2% | 98.9% | 176% | 126% | 80.1% | 89.7% | 42.2% | 63% | 149% | 156% | 120% | 80.1% | 92.1% | 123% | 153% | 33.6% |
| O=C(O)[C@@H]1[O][Sb](=[O])([O][Sb]2(=[O])[O][C@H]([C@H](O)CO)[C@H](O)[C@H](C(=O)O)[O]2)[O][C@H]([C@H](O)CO)[C@@H]1O (stereo partly drawn) [stibogluconate] + COc1ccc(COc2ccc(Cc3cnc(N)nc3N)cc2OC)cc1 [GW2580] (first compound 2 µM, partner dose 1 µM) | 145% | 25.9% | 30.7% | 153% | 105% | 95% | 33.7% | 70.1% | 229% | 86.4% | 70.8% | 167% | 91.6% | 57.2% | 80.2% | 32.5% |
| CNC(=O)c1cc(Oc2ccc(NC(=O)Nc3ccc(Cl)c(C(F)(F)F)c3)cc2)ccn1 [sorafenib] + COc1cc(Nc2ncc(F)c(Nc3ccc4c(n3)NC(=O)C(C)(C)O4)n2)cc(OC)c1OC [Tamatinib] (first compound 0.4 µM, partner dose 0.4 µM) | 105% | 49.2% | 181% | 33.1% | 93.8% | 106% | 74.9% | 78.7% | 47.5% | 176% | 58.9% | 176% | 120% | 50.1% | 99.9% | 51% |
| CCCS(=O)(=O)Nc1ccc(F)c(C(=O)c2c[nH]c3ncc(Cl)cc23)c1F + O=C(O)c1ccc(-c2c[nH]c3ncc(-c4ccccc4)cc23)cc1C1CCCC1 [GSK650394] (first compound 0.08 µM, partner dose 0.16 µM) | 39.6% | 160% | 66.5% | 73.5% | 138% | 114% | 71.3% | 28.9% | 203% | 128% | 139% | 123% | 108% | 115% | 139% | 118% |
| CCCS(=O)(=O)Nc1ccc(F)c(C(=O)c2c[nH]c3ncc(Cl)cc23)c1F + NCC(=O)Nc1ccc(-n2nc(C(F)(F)F)cc2-c2ccc3c(ccc4ccccc43)c2)cc1 [OSU03012] (first compound 0.08 µM, partner dose 1 µM) | 318% | 145% | 104% | 47.5% | 148% | 258% | 146% | 120% | 131% | 289% | 162% | 52.6% | 207% | 109% | 96.6% | 75.7% |
| CCCS(=O)(=O)Nc1ccc(F)c(C(=O)c2c[nH]c3ncc(Cl)cc23)c1F + COC(=O)c1sccc1S(=O)(=O)Nc1ccc(Nc2ccccc2)cc1OC [GSK0660] (first compound 0.08 µM, partner dose 1 µM) | 22.6% | 44.8% | 63.8% | 150% | 113% | 81.4% | 86.5% | 139% | 108% | 552% | 406% | 54.5% | 109% | 120% | 97.2% | 45% |
| CS(=O)(=O)CCNCc1ccc(-c2ccc3ncnc(Nc4ccc(OCc5cccc(F)c5)c(Cl)c4)c3c2)o1 [lapatinib] + O=C1NC(=O)/C(=C/c2ccc(-c3ccc(F)cc3O)o2)S1 [AS252424] (first compound 0.8 µM, partner dose 1 µM) | 101% | 151% | 72.4% | 180% | 87.9% | 95.1% | 37.8% | 219% | 211% | 140% | 57.5% | 33% | 77.4% | 172% | 110% | 306% |
| Nc1nc(F)nc2c1ncn2[C@@H]1O[C@H](CO)[C@@H](O)[C@@H]1O [fludarabine] + NC(=O)Nc1cc(-c2cccc(F)c2)sc1C(=O)N[C@H]1CCCNC1 [AZD7762] (first compound 0.2 µM, partner dose 0.02 µM) | 83.7% | 623% | 349% | 150% | 45.2% | 258% | 419% | 171% | 238% | 197% | 83.8% | 156% | 105% | 165% | 203% | 155% |
| CCCS(=O)(=O)Nc1ccc(F)c(C(=O)c2c[nH]c3ncc(Cl)cc23)c1F + CN(C)S(=O)(=O)c1ccc2c(c1)/C(=C/c1cc3c([nH]1)CCCC3)C(=O)N2 [SU6656] (first compound 0.08 µM, partner dose 0.4 µM) | 224% | 65.7% | 90.3% | 88.1% | 62.1% | 143% | 295% | 171% | 96.3% | 90.7% | 231% | 63.5% | 114% | 84.9% | 84.9% | 269% |
| C=C(c1ccc(C(=O)O)cc1)c1cc2c(cc1C)C(C)(C)CCC2(C)C [Bexarotene] + O=C(Nc1ccccc1)c1cc([N+](=O)[O-])ccc1Cl [GW9662] (first compound 2 µM, partner dose 2 µM) | 3250% | 118% | 61.3% | 196% | 105% | 186% | 35.3% | 87.7% | 23.7% | 100% | 211% | 36.9% | 94.2% | 90.1% | 112% | 457% |
| Nc1ncn([C@H]2C[C@H](O)[C@@H](CO)O2)c(=O)n1 [decitabine] + NCC(=O)Nc1ccc(-n2nc(C(F)(F)F)cc2-c2ccc3c(ccc4ccccc43)c2)cc1 [OSU03012] (first compound 0.1 µM, partner dose 1 µM) | 76.6% | 127% | 134% | 73.9% | 141% | 113% | 217% | 174% | 120% | 74.3% | 49.7% | 51.5% | 94.3% | 104% | 84.2% | 189% |
| CCCS(=O)(=O)Nc1ccc(F)c(C(=O)c2c[nH]c3ncc(Cl)cc23)c1F + COc1cc(Nc2ncc(F)c(Nc3ccc4c(n3)NC(=O)C(C)(C)O4)n2)cc(OC)c1OC [Tamatinib] (first compound 0.08 µM, partner dose 0.4 µM) | 175% | 230% | 187% | 96.7% | 277% | 48.4% | 178% | 68.7% | 144% | 192% | 170% | 83.9% | 131% | 188% | 95% | 118% |
| Cn1c(=O)n(-c2ccc(C(C)(C)C#N)cc2)c2c3cc(-c4cnc5ccccc5c4)ccc3ncc21 + COc1cc2c(Oc3ccc4[nH]c(C)cc4c3F)ncnc2cc1OCCCN1CCCC1 [cediranib] (first compound 0.004 µM, partner dose 0.4 µM) | 80.9% | 55.8% | 56.8% | 31.6% | 139% | 107% | 125% | 58.2% | 128% | 202% | 127% | 135% | 83.8% | 51.6% | 82.8% | 121% |

Some of the entries so far, as tab-separated lines.
SMILES	cleaved PARP positive nuclei fraction (MZ2-MEL)	cleaved PARP positive nuclei fraction (MeWo)	cleaved PARP positive nuclei fraction (RPMI7951)	cleaved PARP positive nuclei fraction (RVH-421)	cleaved PARP positive nuclei fraction (SkMel28)	cleaved PARP positive nuclei fraction (SkMel2)	cleaved PARP positive nuclei fraction (SkMel30)	cleaved PARP positive nuclei fraction (SkMel5)	cleaved PARP positive nuclei fraction (UACC257)	cleaved PARP positive nuclei fraction (UACC62)	cleaved PARP positive nuclei fraction (WM115)	cleaved PARP positive nuclei fraction (WM1716)	cleaved PARP positive nuclei fraction (WM1745)	cleaved PARP positive nuclei fraction (WM3526)	cleaved PARP positive nuclei fraction (WM3619)	cleaved PARP positive nuclei fraction (WM451Lu)
C=C(c1ccc(C(=O)O)cc1)c1cc2c(cc1C)C(C)(C)CCC2(C)C [Bexarotene] + O=C(Nc1ccccc1)c1cc([N+](=O)[O-])ccc1Cl [GW9662] (first compound 2 µM, partner dose 2 µM)	3250%	118%	61.3%	196%	105%	186%	35.3%	87.7%	23.7%	100%	211%	36.9%	94.2%	90.1%	112%	457%
Nc1ncn([C@H]2C[C@H](O)[C@@H](CO)O2)c(=O)n1 [decitabine] + NCC(=O)Nc1ccc(-n2nc(C(F)(F)F)cc2-c2ccc3c(ccc4ccccc43)c2)cc1 [OSU03012] (first compound 0.1 µM, partner dose 1 µM)	76.6%	127%	134%	73.9%	141%	113%	217%	174%	120%	74.3%	49.7%	51.5%	94.3%	104%	84.2%	189%
